Record: PubChem BioAssay AID1224830 (NIAID, 2016)
The deposit covers about 18,000 reagents; below is a random part of them. About 2,900 of them (16%) were called active. 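Calls are made per well; low scores hint the gene aids the LPS response, high scores that it dampens it.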 Reagents against one gene are numbered here. Repeated entries: four replicate wells of each siRNA pool.

- Screen: 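Regulators of TLR4 signalling towards TNF-alpha in macrophage-like cells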 (primary screen)
- System: human THP-1 monocytic leukaemia cells, TNF dual-luciferase reporter clone, PMA-differentiated to macrophage-like cells
- Knock-down reagent: siRNA pool against human genes, 50 nM
- Duration: LPS for 4 h, given about 3 days after siRNA transfection
- Treatment: bacterial LPS (TLR4 ligand), 10 ng/ml
- Measured: 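TNF firefly reporter luminescence divided by renilla, normalised to the plate median, then turned into a robust z-score for each replicate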
- Direction: TNF reporter robust z-score: higher = stronger TNF reporter response to LPS
- Call rule: 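Each well counts as active if its z-score is over 2.8 or under -1.5; controls are left without a call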

gene | pool no. | TNF reporter robust z-score | activity call
DEFB104B | 1 | -0.8 | inactive
DEFB104B | 1 | -0.64 | inactive
DEFB104B | 1 | -0.06 | inactive
DEFB104B | 1 | -0.82 | inactive
PYGO1 | 1 | -0.07 | inactive
PYGO1 | 1 | -0.24 | inactive
PYGO1 | 1 | -0.34 | inactive
RPS5 | 1 | 3.5 | active
RPS5 | 1 | 1.11 | inactive
RPS5 | 1 | 1.01 | inactive
RPS5 | 1 | 0.85 | inactive
TEX9 | 1 | -0.27 | inactive
TEX9 | 1 | 0.15 | inactive
TEX9 | 1 | 0.01 | inactive
TEX9 | 1 | 1.33 | inactive
CNTF | 1 | -0.33 | inactive
CNTF | 1 | 0.46 | inactive
CNTF | 1 | 1.36 | inactive
CNTF | 1 | 0.02 | inactive
KLHL12 | 1 | -0.12 | inactive
KLHL12 | 1 | -0.44 | inactive
KLHL12 | 1 | 0.13 | inactive
KLHL12 | 1 | -0.11 | inactive
ZCCHC12 | 1 | 0.48 | inactive
ZCCHC12 | 1 | 0.32 | inactive
ZCCHC12 | 1 | 1.04 | inactive
ZCCHC12 | 1 | -0.1 | inactive
PDCD4 | 1 | -0.37 | inactive
PDCD4 | 1 | 0.06 | inactive
PDCD4 | 1 | 0.05 | inactive
PDCD4 | 1 | 1.55 | inactive
CNKSR2 | 1 | -0.22 | inactive
CNKSR2 | 1 | 0.38 | inactive
CNKSR2 | 1 | -0.38 | inactive
CNKSR2 | 1 | 2.03 | inactive
CDT1 | 1 | 0.46 | inactive
CDT1 | 1 | 0.28 | inactive
CDT1 | 1 | 0.17 | inactive
CDT1 | 1 | 0.08 | inactive
ANKRD6 | 1 | -1.03 | inactive
ANKRD6 | 1 | -1.42 | inactive
ANKRD6 | 1 | -0.75 | inactive
ANKRD6 | 1 | -0.68 | inactive
AKAP4 | 1 | 1.37 | inactive
AKAP4 | 1 | 1.88 | inactive
AKAP4 | 1 | 2.47 | inactive
AKAP4 | 1 | -0.76 | inactive
SLC25A46 | 1 | -1.52 | active
SLC25A46 | 1 | 0.01 | inactive
SLC25A46 | 1 | -1.07 | inactive
SLC25A46 | 1 | 0.18 | inactive
RECQL4 | 1 | -1.76 | active
RECQL4 | 1 | -1.25 | inactive
RECQL4 | 1 | -1.35 | inactive
RECQL4 | 1 | -1.36 | inactive
TXLNGY | 1 | -0.06 | inactive
TXLNGY | 1 | -0.14 | inactive
TXLNGY | 1 | 0.09 | inactive
TXLNGY | 1 | -0.56 | inactive
TXLNGY | 2 | -0.89 | inactive
TXLNGY | 2 | -1.01 | inactive
TXLNGY | 2 | -0.94 | inactive
TXLNGY | 2 | -0.88 | inactive
ACKR1 | 1 | -0.67 | inactive
ACKR1 | 1 | 0.55 | inactive
ACKR1 | 1 | -0.52 | inactive
ACKR1 | 1 | 1.02 | inactive
SQOR | 1 | -0.47 | inactive
SQOR | 1 | -0.05 | inactive
SQOR | 1 | -0.59 | inactive
SQOR | 1 | -0.17 | inactive
FAM131B | 1 | 3.25 | active
FAM131B | 1 | 6.29 | active
FAM131B | 1 | 2.78 | inactive
FAM131B | 1 | 4.11 | active
MARCHF11 | 1 | -1.96 | active
MARCHF11 | 1 | 0.42 | inactive
MARCHF11 | 1 | 2.42 | inactive
MARCHF11 | 1 | 3.57 | active
TMSB15A | 1 | -1.49 | inactive
TMSB15A | 1 | -1.37 | inactive
TMSB15A | 1 | -1.55 | active
TMSB15A | 1 | -1.14 | inactive
TCEAL9 | 1 | -0.34 | inactive
TCEAL9 | 1 | -1.2 | inactive
TCEAL9 | 1 | -0.58 | inactive
TCEAL9 | 1 | -0.12 | inactive
ARL13A | 1 | – | inactive
OR1Q1 | 1 | -0.32 | inactive
OR1Q1 | 1 | -0.17 | inactive
OR1Q1 | 1 | -0.74 | inactive
OR1Q1 | 1 | 0.16 | inactive
NPHP1 | 1 | 0.98 | inactive
NPHP1 | 1 | 0.77 | inactive
NPHP1 | 1 | 1.26 | inactive
NPHP1 | 1 | 0.71 | inactive
SFTPC | 1 | -0.7 | inactive
SFTPC | 1 | -1.15 | inactive
SFTPC | 1 | -0.97 | inactive
SFTPC | 1 | -0.21 | inactive
SLC16A10 | 1 | -1.89 | active
SLC16A10 | 1 | -1.51 | active
SLC16A10 | 1 | -1.65 | active
SLC16A10 | 1 | -1.39 | inactive
NBPF10 | 1 | -1.24 | inactive
NBPF10 | 1 | -0.74 | inactive
NBPF10 | 1 | -0.79 | inactive
NBPF10 | 1 | -0.66 | inactive
HSPA12B | 1 | 0.45 | inactive
HSPA12B | 1 | 0.58 | inactive
HSPA12B | 1 | -0.67 | inactive
HSPA12B | 1 | 1.1 | inactive
SMOC1 | 1 | 0.09 | inactive
SMOC1 | 1 | -0.54 | inactive
SMOC1 | 1 | -0.52 | inactive
SMOC1 | 1 | -0.43 | inactive
TANC1 | 1 | 0.14 | inactive
TANC1 | 1 | -1.87 | active
TANC1 | 1 | -0.77 | inactive
TANC1 | 1 | -0.03 | inactive
GNPDA1 | 1 | -0.86 | inactive
GNPDA1 | 1 | -0.1 | inactive
GNPDA1 | 1 | -0.94 | inactive
GNPDA1 | 1 | -0.48 | inactive
POMP | 1 | -2.01 | active
POMP | 1 | -1.93 | active
POMP | 1 | -1.29 | inactive
POMP | 1 | -1.5 | inactive
FST | 1 | -0.48 | inactive
FST | 1 | 0.14 | inactive
FST | 1 | 0.29 | inactive
FST | 1 | 0.04 | inactive
XRCC3 | 1 | -0.44 | inactive
XRCC3 | 1 | -0.48 | inactive
XRCC3 | 1 | 0.96 | inactive
XRCC3 | 1 | 0.4 | inactive
ZPBP | 1 | -0.35 | inactive
ZPBP | 1 | 1.42 | inactive
ZPBP | 1 | -0.01 | inactive
ZPBP | 1 | 0.63 | inactive

Taken from above.
Entry for ARL13A in “activity call”: inactive
